Results reported in the DeepSol protein solubility set.

Assay: soluble on expression in E. coli; label from the status in PepcDB or PDB records

| Sequence | soluble on expression in E. coli |
| --- | --- |
| MDDGIAMGHIGMRYSLPSRELIADAAETVINAHWFDGVFYIPNCDKITPGMILAAMRTNVPAVFCSGGPMKGGVDMTGHQATLSSLFEAVGTYQSGDMSKEELDYLEKNACPTCGSCSGMFTANSMNCLMEVLGLALPGNGTILAVSDERRELVRQTATKLMDNIKNNVRPRDIVTKEAIDDAFALDMAMGGSTNTVLHTLAIAREAGIDYDLKDINDIAKKTPYLSKIAPSSIYTMHDVHEAGGVPAIINQLIKKGAIKGDRITVTGKTLKENVAGAKIKNEEIIHPIEQPISPVGGLSILYGNIAQDGSVIKVGGVDPSVKTFRGKAICCDSQAQALELIDNGTVKKGHVVVIRYEGPQGGPGMPEMLAPTSKIVGRGLDKDVALITDGRFSGATRGIAIGHVSPEAAEGGNIALIEDGDEIVIDLPNRTLDLLVDDVTLEARRKHLKPFKSKISSGWLRRYTAFAKSANIGGTLMSNEEFEERKAERQAQEKNLEHHHHHH | not soluble |
| MGHHHHHHSHMANSMANSMPSSPLRVAVVCSSNQNRSMEAHNILSKRGFSVRSFGTGTHVKLPGPAPDKPNVYDFKTTYDQMYNDLLRKDKELYPSGLPFKNPPCGPPWKVLRVARAQEACHPVQCTHWLLCLCESLVSIPGARRIVHGLVPVPPMAVGVVRRTDTVWGSP | not soluble |
| SLKIDIHTHILPKEWPDLEKRFGYGGWVQLQQQGKGEAKMMKDGKVFRVIQQNCWDPEVRIREMNQKGVTVQALSTVPVMFSYWAKPKDTLELCQFLNNDLAATVARYPRRFVGLGTLPMQAPGLAVEEMERCVKELGFPGIQIGSHINMWDLNDPELFPIYTAAERLNCSLFVHPWDMQMDGRMAKYWLPWLVGMPSETTTAICSMIMGGVFEKFPKLKVCFAHGGGAFPFTIGRIAHGFNMRPDLCARDNSSDPRKYLGSFYTDSLVHDPLSLKLLTDVIGKDRVILGTDYPFPLGEQEPGKLIESMADFDEETKDKLTAGNALTFLGLERKLFE | soluble |
| MGHLGKTRWTREEDEKLKKLVEQNGTDDWKVIANYLPNRTDVQCQHRWQKVLNPELIKGPWTKEEDQRVIKLVQKYGPKRWSVIAKHLKGRIGKQCRERWHNHLNPEVKKTSWTEEEDRIIYQAHKRLGNRWAEIAKLLPGRTDNAIKNHWNSTMRRKV | soluble |
| SGSSRLRVFDPHLERKDSAAALSDRELPLPTFDVPYFKYIDEEDEDDEWSSRSQSSTEDDSVDSLLSDRYVVVSGTPEKILEHLLNDLHLEEVQDKETETLLDDFLLTYTVFMTTDDLCQALLRHYSAKKYQGKEENSDVPRRKRKVLHLVSQWIALYKDWLPEDEHSKMFLKTIYRNVLDDVYEYPILEKELKEFQKILGMHRRHTVDEYSPQKKNKALFHQFSLKENWLQHRGTVTETEEIFCHVYITEHSYVSVKAKVSSIAQEILLCSQLGKRVQLVKKFIKIAAHCKAQRNLNSFFAIVMGLNTASVSRLSQTWEKIPGKFKKLFSELESLTDPSLNHKAYRDAFKKMKPPKIPFVPLLLKDVTFIHEGNKTFLDNLVNFEKLHMIADTVRTLRHCRTNQFGDLSPKEHQELKSYVNHLYVIDSQQALFELSHRIEPRV | soluble |
| MRTEYCGQLRLSHVGQQVTLCGWVNRRRDLGSLIFIDMRDREGIVQVFFDPDRADALKLASELRNEFCIQVTGTVRARDEKNINRDMATGEIEVLASSLTIINRADVLPLDSNHVNTEEARLKYRYLDLRRPEMAQRLKTRAKITSLVRRFMDDHGFLDIETPMLTKATPEGARDYLVPSRVHKGKFYALPQSPQLFKQLLMMSGFDRYYQIVKCFRDEDLRADRQPEFTQIDVETSFMTAPQVREVMEALVRHLWLEVKGVDLGDFPVMTFAEAERRYGSDKPDLRNPMELTDVADLLKSVEFAVFAGPANDPKGRVAALRVPGGASLTRKQIDEYGNFVKIYGAKGLAYIKVNERAKGLEGINSPVAKFLNAEIIEDILDRTAAQDGDMIFFGADNKKIVADAMGALRLKVGKDLGLTDESKWAPLWVIDFPMFEDDGEGGLTAMHHPFTSPKDMTAAELKAAPENAVANAYDMVINGYEVGGGSVRIHNGDMQQTVFGILGINEEEQREKFGFLLDALKYGTPPHAGLAFGLDRLTMLLTGTDNIRDVIAFPKTTAAACLMTEAPSFANPTALAELSIQVVKKAENN | soluble |
| MDWIYSWKDSIFYGMCSCSGSPSYHEKDVPHPHDRLDMPLQLKAYRRNSLNAEGYYRDLERMHERGLFTTGINYNAEKSEDFLNMIERMQSNRLDDQRCEMPERTHNPTSGHQNEQTHQKTNGSAVHNQLTRNIMNEVLTKVGPYPQIVLPSNGFWMDGVNQQHHMDDQVNNMNVNSCARFKLETDETSHCYRRHFFGREHHDFFANDPIVGPLVLSVRTEVISSCDHFRIILRTRKGTIHEIVSATALADRPSASRMAKLLCEEITTEQFSPVAFPGGSELIVQYDEHVLTNTYKFGVIYQKGGQTTEEQLFGNPHGSPAFDEFLSMIGDSVQLNGFQKYRGGLDTAHNQTGHQSVFSEFKNREIMFHVSTMLPYTIGDAQQLQRKRHIGNDIVAIIFQEANTPFAPDMIASNFLHAYVVVQPIDALTDRVRYRVSVAARDDVPFFGPTLPTPSIFKRGQDFRNFLLTKLINAENAAYKSSKFAKLAERTRSSLLDGLHATLRERAEFYATPLLESTSSGGESAATTSSSSNSYGGGILSSVKKAFIGRSRSVSQEASHVPHRAATINVTSRPKKSISSTSSSTSARTHSPIRDEEVVKPYRKEWEISSQESPDNEHDSDTGMESMSSTEMSGQTRASSCTFCVDDFHVAANHQSSDAKRLETLCVDVTRLQNEKHDLLRQNVSCKTDIKKLKDRQSVLSEELERANDEISRLRRMLKKPSNSDMAPVHQHFERSYSDVSV | not soluble |
| GSPEFHMDALGPLPDGWEKKIQSDNRVYFVNHKNRTTQWEDPRTQGQEVSLINEGPLPPGWEIRYTAAGERFFVDHNTRRTTFEDPRP | soluble |
| MSSLVSISKKLSGQRQHRERSQPEARRKYGELEKKKDYKLRAEDYQKKRDTIKKLKKSAMDKNQDEYHHHMVNSETWADGRHFDKKTEAEETETQIQKKLGSLKDLEYVKFKLNEEKKKIDEMKGELHFADSSLNGKGNTHTVFVDTDSEAKSFDPRVYFDTTTSMLSRQFNRLKNEDFQNKTIIGAGTKEQVRKADRVRRTRYNELIKRVERAKELQVVVDKLELKKQLAAGSKSELKPQKVKKAKAMRAAVYKWTYERKK | not soluble |
| RNQALIKKGMEAIPVAGGAFSNYYRGGFDQKMSRAEAAKILGVAPSAKPAKIKEAHKKVMIVNHPDRGGSPYLAAKINEAKDLMESSKS | not soluble |
